# From PubChem BioAssay AID493014 (National Center for Advancing Translational Sciences (NCATS), 2011)
# The list shows a part of the results. Further columns of the screen follow, without active or inactive calls. The list favours compounds with an active or inconclusive main result. The note in brackets gives the kind of curve behind each potency; many fits are weak.
# Assay: qHTS Assay to Find Inhibitors of Chronic Active B-Cell Receptor Signaling
# Conditions: ABC-DLBCL IkBa-CBG/CBR reporter, luminescence ratio (green luciferase fused to IkBa over red control in TMD8 lymphoma cells), 4 h
# Summary of the method: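 Concentration-response series (up to 46 uM) were applied to TMD8 dual-reporter cells for 4 h at 37C with doxycycline. Green/red ratio, after filter-overlap correction, defined %Activity; red signal alone was normalised to basal cells and zero luminescence.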
# [1] = measured here: CBR red luminescence, cell number
# [2] = measured here: IkBa-CBG green luminescence
SMILES,AC50 [1],AC50 [2]
C=CCOc1ccc(C2CC(C)=NN2c2ccccc2)cc1 (stereo not drawn),"20.6 µM [rising, partial curve, poor fit]",
O=c1[nH]c(NNC(=S)NCc2ccccc2)nc2c1C1(CCCCC1)Cc1ccccc1-2,"29.1 µM [falling, single point]","18.4 µM [rising, partial curve, poor fit]"
Cc1sc2nc(SCC(=O)NCCO)n(C)c(=O)c2c1C,"10.3 µM [rising, partial curve, poor fit]",
CCOC(=O)c1cc(-c2ccc(F)cc2)n(CCC(=O)NC2CCN(Cc3ccccc3)CC2)c1C,"35.5 µM [falling, partial curve, poor fit]",
O=S(=O)(Nc1cccc2ncccc12)c1cccs1,"7.31 µM [rising, partial curve]","5.17 µM [falling, full curve]"
Nc1cccc(C(=O)OCC(=O)Nc2cccc3c2C(=O)c2ccccc2C3=O)c1,"4.61 µM [rising, single point]",
CCCCC(=O)NCCc1cc2c(OC)ccc(OC)c2[nH]c1=O,"35.5 µM [rising, partial curve, poor fit]",
Nc1c(N(CCC2=CCCCC2)C(=O)c2ccco2)c(=O)[nH]c(=O)n1Cc1ccccc1,"18.4 µM [falling, single point]",
C/C(=N\NC(=O)c1ccco1)c1cc2ccccc2o1,"32.6 µM [falling, single point]",
Cn1c(NC(=O)c2ccccc2)nc2ccccc21,"11.2 µM [falling, partial curve]",
CCN1C(=O)c2cccc3c(S(=O)(=O)NCc4cccnc4)ccc1c23,"29.1 µM [rising, single point]",
Cc1ccc(S(=O)(=O)/N=C(/Nc2ccc([N+](=O)[O-])cc2)c2ccccc2)cc1,"1.41 µM [rising, partial curve, poor fit]",
COc1ccc(C2Nc3ccccc3C(=O)N2NS(=O)(=O)c2ccc(C)cc2)cc1 (stereo not drawn),"6.31 µM [rising, single point]",
CCOC(=O)c1c(C)[nH]c(NC(=O)NNC(=O)c2ccccc2Cl)c1C,"13 µM [falling, partial curve, poor fit]",
O=C1N[C@@H](c2ccccc2)COC(=O)[C@H](Cc2ccc(F)cc2)CC/C=C/C[C@@H]1CC(=O)N(CCO)Cc1ccccc1,"25.9 µM [falling, single point]",
Nc1c(C(=O)Nc2ccc(Cl)cc2)sc2nc(N3CCOCC3)c3c(c12)CCCC3,"7.08 µM [falling, partial curve]",
COc1cc(C(=O)OCCCN=C2NS(=O)(=O)c3ccccc32)cc(OC)c1OC,"3.55 µM [rising, single point]",
COC(=O)CCCCCN1C(=O)/C(=C\c2ccncc2)SC1=S,"2 µM [falling, full curve]",
COc1ccc(NC(=O)c2cc(-c3ccco3)on2)c(OC)c1,"5.62 µM [rising, single point]",
Cc1ccc(-c2csc3ncnc(SCC(=O)O)c23)cc1,"31.6 µM [falling, single point]",
CC(=O)C(Cc1ccccc1)NC(=O)COC(=O)c1cccc(C)c1[N+](=O)[O-] (stereo not drawn),"0.0366 µM [rising, full curve, poor fit]",

# Single values from above.
# Nc1c(N(CCC2=CCCCC2)C(=O)c2ccco2)c(=O)[nH]c(=O)n1Cc1ccccc1 | AC50 [1]: 18.4 µM [falling, single point]
# Cc1sc2nc(SCC(=O)NCCO)n(C)c(=O)c2c1C | AC50 [1]: 10.3 µM [rising, partial curve, poor fit]
# O=c1[nH]c(NNC(=S)NCc2ccccc2)nc2c1C1(CCCCC1)Cc1ccccc1-2 | AC50 [1]: 29.1 µM [falling, single point]

# Next part

SMILES,AC50 [1],AC50 [2]
O=C(Nc1ccc2ccccc2c1)Nc1ccc2snnc2c1,"32.6 µM [falling, single point]",
CCn1nc(NC(=O)Cc2ccc(OC)cc2)c2cc3cccc(C)c3nc21,"11.2 µM [falling, partial curve, poor fit]",
CC(=O)c1ccc(N=Nc2ccc(N(C)C)cc2)cc1,"35.5 µM [rising, partial curve, poor fit]",
Cc1c(C(=O)NCCc2ccc3c(c2)OCCO3)oc2ccccc12,"6.51 µM [falling, partial curve]",
CC(=O)Nc1cccc(NC(=O)c2ccc([N+](=O)[O-])cc2Cl)c1,"16.4 µM [rising, partial curve, poor fit]",
Fc1ccc(NC(=S)NCc2cccs2)cc1,"29.1 µM [falling, single point]",
O=C(CN1C(=O)S/C(=C\c2cccc(Cl)c2)C1=O)NCCCn1ccnc1,"17.8 µM [falling, single point]",
CCN1CCN(C(=O)CCc2nnc(CCc3ccc(OC)cc3)o2)[C@@H](C)C1=O,"14.1 µM [falling, single point]",
Cc1ccc(-n2ncc3c(=O)[nH]c(SCC(=O)NCC4CCCO4)nc32)cc1 (stereo not drawn),"14.6 µM [falling, partial curve, poor fit]",
Cc1ccc(C(=O)NC2CCC(C)CC2)s1 (stereo not drawn),"14.6 µM [falling, partial curve]",
FC(F)(F)c1ccc2c(c1)nc1n2CCCC1,"10 µM [rising, partial curve]",
CCSc1nnc(NC(=O)CSC2=NCCS2)s1,"35.5 µM [falling, single point]",
COc1ccc(/C(N)=N/OC(=O)CCC2CCCC2)cc1OC,"1.78 µM [rising, partial curve, poor fit]",
Brc1c(-c2ccccc2)nc2n1Cc1ccccc1-2,,"12.6 µM [rising, partial curve, poor fit]"
C/C(=N\NC(=O)c1cc(C)nc2ccccc12)c1ccccn1,"7.31 µM [rising, single point]",
COc1ccc(NC(=O)Nc2ccccc2SC)cc1,"2.82 µM [falling, full curve]",
CCc1cc(C=NC2CCCCC2)c(O)s1,"2.51 µM [rising, partial curve]",
CC1=NNC(=O)C1Cc1ccccc1C (stereo not drawn),"3.55 µM [rising, full curve, poor fit]",
Cc1ccc(CC(=O)Nc2cccc(C#N)c2)cc1,"17.8 µM [rising, partial curve, poor fit]",
C=CCC[C@H](Cc1ccc(F)cc1)C(=O)OC[C@@H](Cc1c[nH]c2ccccc12)NC(=O)[C@H](CC=C)CC(=O)NCCO,"20.6 µM [falling, single point]",
